Measurements as given in PubChem BioAssay AID2685 (National Center for Advancing Translational Sciences (NCATS), 2010).
Some of the results follow. The main result of the screen is listed elsewhere. These columns were measured beside it and carry no call. Most of these compounds were active or inconclusive in the main read-out, so they are no random draw. Potencies come from curve fits of mixed quality, noted in brackets.

Assay: qHTS Assay for Lipid Storage Modulators in Drosophila S3 Cells;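 as to cell number change: cells counted by Cell Tracker Red CMTPX staining in the red channel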
Details: BODIPY lipid droplet fluorescence, 18-24 h; for cell number change: measured here: cell count max response, cells fed with added oleic acid
Outline: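 Laser-scanning cytometry quantifies lipid droplet accumulation (500–530 nm total intensity; droplet/cell object ratio) in oleic acid-fed (400 uM added) Drosophila S3 cells treated with a concentration series. 20 uM Triacsin C defined 100% inhibition.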

[1] = measured here: lipid fluorescence (Fed channel) AC50, cells fed with added oleic acid
[2] = measured here: cell number channel AC50, cells fed with added oleic acid

SMILES | cell number change [%] | AC50 [1] | AC50 [2]
CCCn1c(NCc2cc(C)ccc2O)nc2ccccc21 | 5.73 |  | 
Cc1cccc(C(=O)NCCCNC(=O)c2ccc(C)nc2)c1 | 22.3 | 6510 nM [rising, single point] | 
N#Cc1c(N)n(CCNC(=O)c2ccccc2)c2nc3ccccc3nc12 |  | 2060 nM [rising, partial curve] | 
O=C1Nc2ccc(S(=O)(=O)N3CCOCC3)c3cccc1c23 | 33.7 | 2910 nM [rising, single point] | 32600 nM [rising, single point]
O=C(Cn1cc(C(F)(F)F)cc(Cl)c1=O)Nc1cc(Cl)cc(Cl)c1 | -22.1 |  | 2060 nM [falling, single point]
CN(/N=C/c1cc([N+](=O)[O-])ccc1O)c1ccccc1 | -10.4 | 411 nM [falling, full curve] | 
O=C(O)CN1CCN(Cc2ccccc2Cl)C1=O |  | 7310 nM [falling, partial curve, poor fit] | 411 nM [falling, single point]
COc1cccc(Cn2cc(/C=N/NC(=O)c3cc(O)cc(O)c3)c3ccccc32)c1 | -17.3 | 651 nM [rising, full curve, poor fit] | 
CCCCC(=O)OCC(=O)c1[nH]c(C)c(C(=O)OCC)c1C | 35.9 |  | 8200 nM [rising, partial curve, poor fit]
CC(=O)Nc1nnc(CCS(=O)(=O)c2ccc(C)c(C)c2)s1 | 17.3 | 1640 nM [falling, partial curve] | 
CN(C)C(=O)N1CCC(C(=O)N2CCCC(C(=O)c3cccc4ccccc34)C2)CC1 (stereo not given) | -13.8 |  | 
CC(C)c1ccc(OCC(=O)NC(Cc2c[nH]c3ccccc23)C(=O)O)cc1 (stereo not given) | -7.95 | 58 nM [rising, full curve, poor fit] | 
O=C1CC[C@@H](CN(Cc2ccccc2)Cc2cn[nH]c2-c2cc3ccccc3o2)N1 | 4.13 | 5.8 nM [falling, full curve, poor fit] | 
COC(=O)C1CCN(C(=O)CSc2nc3nc(C)cc(C)n3n2)CC1 | 0.643 | 3260 nM [falling, single point] | 6510 nM [falling, single point]
COC(=O)c1cc(S(=O)(=O)NCc2cccc(Br)c2)c[nH]1 |  | 4610 nM [rising, full curve] | 
CCCNC(=O)c1ccc(N2CCC3(CC2)CC(c2cccc(Br)c2)=NO3)c(NC(=O)c2ccc(Br)cc2)c1 | 20.3 | 29100 nM [rising, single point] | 

As a short view, some entries already given.
SMILES | cell number change [%] | AC50 [1] | AC50 [2]
COC(=O)C1CCN(C(=O)CSc2nc3nc(C)cc(C)n3n2)CC1 | 0.643 | 3260 nM [falling, single point] | 6510 nM [falling, single point]
COC(=O)c1cc(S(=O)(=O)NCc2cccc(Br)c2)c[nH]1 |  | 4610 nM [rising, full curve] | 
